Results taken from US10159726B2, “Peptides, combination of peptides and scaffolds for use in immunotherapeutic treatment of various cancers” (Immatics Biotechnologies GmbH, priority 2015, dated 2018).
For some assays here: For expression read-outs the peptide stands for its source gene, whose mRNA was measured; the gene is not named for every peptide.

Tests used:
Set-up in all cases: species or system human
[1] = system: HLA-A*02 molecules of primary tumors; assay: Identification and relative LC-MS quantitation of HLA-A*02 tumor-associated peptides presented on tissue samples (XPRESIDENT presentation profiles)
[2] = system: source genes of selected peptides; assay: Target coverage of source genes in tumor entities based on TCGA Research Network data; details: over-expressed = more than 2-fold above the highest 75% percentile of normal organs; for Target coverage, over-expression category of source gene, PCPG (N = 184): Pheochromocytoma and paraganglioma; for Target coverage, over-expression category of source gene, BLCA (N = 408): Bladder urothelial carcinoma; for Target coverage, over-expression category of source gene, HNSC (N = 521): Head and neck squamous cell carcinoma
[3] = system: source genes of selected peptides; assay: Expression profiling of source genes by in-house RNAseq, tumor vs normal tissues (target coverage); details: for Target coverage, over-expression of source gene, AML: AML (N = 7), over-expression = more than 1.5-fold higher expression on tumor vs highest-expressing relevant normal tissue; for Target coverage, over-expression of source gene, AML / Target coverage, over-expression of source gene, BRCA / Target coverage, over-expression of source gene, CLL / Target coverage, over-expression of source gene, CRC / Target coverage, over-expression of source gene, GB / Target coverage, over-expression of source gene, HCC / Target coverage, over-expression of source gene, OC / Target coverage, over-expression of source gene, OSCAR / Target coverage, over-expression of source gene, PC / Target coverage, over-expression of source gene, RCC / Target coverage, over-expression of source gene, SCLC / Target coverage, over-expression of source gene, pNSCLC: in-house RNASeq; for Target coverage, over-expression of source gene, BRCA: BRCA (N = 10); for Target coverage, over-expression of source gene, BRCA / Target coverage, over-expression of source gene, CLL / Target coverage, over-expression of source gene, CRC / Target coverage, over-expression of source gene, GB / Target coverage, over-expression of source gene, HCC / Target coverage, over-expression of source gene, OC / Target coverage, over-expression of source gene, OSCAR / Target coverage, over-expression of source gene, PC / Target coverage, over-expression of source gene, RCC / Target coverage, over-expression of source gene, SCLC / Target coverage, over-expression of source gene, pNSCLC: over-expression = more than 1.5-fold vs highest normal tissue; for Target coverage, over-expression of source gene, CLL: CLL (N = 10); for Target coverage, over-expression of source gene, CRC: CRC (N = 20); for Target coverage, over-expression of source gene, GB: GB (N = 24); for Target coverage, over-expression of source gene, HCC: HCC (N = 15); for Target coverage, over-expression of source gene, OC: OC (N = 12); for Target coverage, over-expression of source gene, OSCAR: OSCAR (N = 11); for Target coverage, over-expression of source gene, PC: PC (N = 26); for Target coverage, over-expression of source gene, RCC: RCC (N = 10); for Target coverage, over-expression of source gene, SCLC: SCLC (N = 10); for Target coverage, over-expression of source gene, pNSCLC: pNSCLC (N = 11)
[4] = Table 8A: selected HLA-A*02-binding tumor-associated peptides, cancer entities on which the peptide was found presented
[5] = Table 8B: selected HLA-A*02 peptides, presentation on additional cancer entities

Substance	Peptide Presentation on cancer entities [1, 4]	Peptide Presentation on cancer entities [1, 5]	Target coverage, over-expression of source gene, AML [3]	Target coverage, over-expression of source gene, BRCA [3]	Target coverage, over-expression of source gene, CLL [3]	Target coverage, over-expression of source gene, CRC [3]	Target coverage, over-expression of source gene, GB [3]	Target coverage, over-expression of source gene, HCC [3]	Target coverage, over-expression of source gene, OC [3]	Target coverage, over-expression of source gene, OSCAR [3]	Target coverage, over-expression of source gene, PC [3]	Target coverage, over-expression of source gene, RCC [3]	Target coverage, over-expression of source gene, SCLC [3]	Target coverage, over-expression of source gene, pNSCLC [3]	other results
38: peptide found in CACNA2D1 (gene looked up) (KMQEDLVTL; listed as Homo sapiens) [compound 38]	NSCLC, RCC, OC, GC, GBC_CCC, OSCAR, clPC, GB, BRCA, PCA, PC, UEC, HCC, CRC, SCLC, NHL	MEL, AML													Target coverage, over-expression category of source gene, PCPG (N = 184) [2]: C (>=5% of tumors above the cutoff, but <20%)
40: peptide found in CLDN6 (gene looked up) (SLLALPQDLQA; listed as Homo sapiens) [compound 40]	PCA, NSCLC, CRC, UBC, OC	GBC_CCC, BRCA, UTC													Target coverage, over-expression category of source gene, BLCA (N = 408) [2]: C (>=5% of tumors above the cutoff, but <20%); Target coverage, over-expression category of source gene, CESC (N = 307) ([2]; Cervical squamous cell carcinoma and endocervical adenocarcinoma): C (>=5% of tumors above the cutoff, but <20%); Target coverage, over-expression category of source gene, CHOL (N = 36) ([2]; Cholangiocarcinoma): A (>=50% of tumors above the cutoff); Target coverage, over-expression category of source gene, HNSC (N = 521) [2]: C (>=5% of tumors above the cutoff, but <20%); Target coverage, over-expression category of source gene, MESO (N = 87) ([2]; Mesothelioma): C (>=5% of tumors above the cutoff, but <20%); Target coverage, over-expression category of source gene, PCPG (N = 184) [2]: C (>=5% of tumors above the cutoff, but <20%); Target coverage, over-expression category of source gene, STAD (N = 415) ([2]; Stomach adenocarcinoma): C (>=5% of tumors above the cutoff, but <20%); Target coverage, over-expression category of source gene, TGCT (N = 156) ([2]; Testicular germ cell tumors): A (>=50% of tumors above the cutoff); Target coverage, over-expression category of source gene, THYM (N = 120) ([2]; Thymoma): C (>=5% of tumors above the cutoff, but <20%); Target coverage, over-expression category of source gene, THCA (N = 513) ([2]; Thyroid carcinoma): A (>=50% of tumors above the cutoff); Target coverage, over-expression category of source gene, UCS (N = 57) ([2]; Uterine carcinosarcoma): A (>=50% of tumors above the cutoff); Target coverage, over-expression category of source gene, UCEC (N = 546) ([2]; Uterine corpus endometrial carcinoma): B (>=20% of tumors above the cutoff, but <50%)
92: peptide found in IGFBP3 (gene looked up) (LLRGPPVARA; listed as Homo sapiens) [compound 92]	clPC, PC, RCC, UBC, OSCAR														Target coverage, over-expression category of source gene, BLCA (N = 408) [2]: B (>=20% of tumors above the cutoff, but <50%); Target coverage, over-expression category of source gene, HNSC (N = 521) [2]: C (>=5% of tumors above the cutoff, but <20%); Target coverage, over-expression category of source gene, KIRP (N = 291) ([2]; Kidney renal papillary cell carcinoma): C (>=5% of tumors above the cutoff, but <20%)
329: peptide found in ABCC2 (gene looked up) (FAWEPSFRDQV; listed as Homo sapiens) [compound 329]	SCLC, HCC	GBC_CCC	I (<19% over-expression = I)	I (<19% over-expression = I)	I (<19% over-expression = I)	I (<19% over-expression = I)	I (<19% over-expression = I)	III (50-69% = III)	I (<19% over-expression = I)	I (<19% over-expression = I)	I (<19% over-expression = I)	I (<19% over-expression = I)	I (<19% over-expression = I)	I (<19% over-expression = I)	
331: peptide found in RIF1 (gene looked up) (AIWKELISL; listed as Homo sapiens) [compound 331]	GB, CRC	MEL, CLL, NSCLC	I (<19% over-expression = I)	I (<19% over-expression = I)	I (<19% over-expression = I)	I (<19% over-expression = I)	II (20-49% = II)	I (<19% over-expression = I)	I (<19% over-expression = I)	I (<19% over-expression = I)	I (<19% over-expression = I)	I (<19% over-expression = I)	III (50-69% = III)	I (<19% over-expression = I)	Target coverage for source genes of selected peptides, GBC_CCC (N = 10) ([3]; gallbladder adenocarcinoma and cholangiocarcinoma, share of tumors with more than 1.5-fold higher expression than the highest-expressing relevant normal tissue, in-house RNAseq): I (<19% over-expression = I); Target coverage for source genes of selected peptides, GC (N = 11) ([3]; gastric cancer, share of tumors with more than 1.5-fold higher expression than the highest-expressing relevant normal tissue, in-house RNAseq): I (<19% over-expression = I); Target coverage for source genes of selected peptides, HNSCC (N = 10) ([3]; head and neck small cell carcinoma, share of tumors with more than 1.5-fold higher expression than the highest-expressing relevant normal tissue, in-house RNAseq): II (20-49% = II); Target coverage for source genes of selected peptides, MEL (N = 10) ([3]; melanoma, share of tumors with more than 1.5-fold higher expression than the highest-expressing relevant normal tissue, in-house RNAseq): I (<19% over-expression = I); Target coverage for source genes of selected peptides, NHL (N = 10) ([3]; non-Hodgkin lymphoma, share of tumors with more than 1.5-fold higher expression than the highest-expressing relevant normal tissue, in-house RNAseq): I (<19% over-expression = I); Target coverage for source genes of selected peptides, PCA (n = 10) ([3]; prostate cancer and benign prostate hyperplasia, share of tumors with more than 1.5-fold higher expression than the highest-expressing relevant normal tissue, in-house RNAseq): I (<19% over-expression = I); Target coverage for source genes of selected peptides, UBC (N = 10) ([3]; urinary bladder cancer, share of tumors with more than 1.5-fold higher expression than the highest-expressing relevant normal tissue, in-house RNAseq): I (<19% over-expression = I); Target coverage for source genes of selected peptides, UTC (N = 10) ([3]; uterine cancer, share of tumors with more than 1.5-fold higher expression than the highest-expressing relevant normal tissue, in-house RNAseq): I (<19% over-expression = I)
337: peptide found in LRBA (gene looked up) (KVLGKIEKV; listed as Homo sapiens) [compound 337]	RCC, CRC		I (<19% over-expression = I)	II (20-49% = II)	I (<19% over-expression = I)	I (<19% over-expression = I)	I (<19% over-expression = I)	I (<19% over-expression = I)	I (<19% over-expression = I)	I (<19% over-expression = I)	I (<19% over-expression = I)	I (<19% over-expression = I)	II (20-49% = II)	I (<19% over-expression = I)	
338: peptide found in LRBA (gene looked up) (LLYDGKLSSA; listed as Homo sapiens) [compound 338]		CRC, UBC, OC	I (<19% over-expression = I)	II (20-49% = II)	I (<19% over-expression = I)	I (<19% over-expression = I)	I (<19% over-expression = I)	I (<19% over-expression = I)	I (<19% over-expression = I)	I (<19% over-expression = I)	I (<19% over-expression = I)	I (<19% over-expression = I)	II (20-49% = II)	I (<19% over-expression = I)	
